Assay results from PMC9569985.
These are yes or no findings as the source states them, for the method shown. Binding seen in cells or lysates may run through a third protein. These calls come from enrichment with a bait or labelling near it, and not all partners need be listed. Tags and fused reporters may be left off the sequences shown.

The chains behind the UniProt entries cited, without tags or fusion partners.
UniProt P11142: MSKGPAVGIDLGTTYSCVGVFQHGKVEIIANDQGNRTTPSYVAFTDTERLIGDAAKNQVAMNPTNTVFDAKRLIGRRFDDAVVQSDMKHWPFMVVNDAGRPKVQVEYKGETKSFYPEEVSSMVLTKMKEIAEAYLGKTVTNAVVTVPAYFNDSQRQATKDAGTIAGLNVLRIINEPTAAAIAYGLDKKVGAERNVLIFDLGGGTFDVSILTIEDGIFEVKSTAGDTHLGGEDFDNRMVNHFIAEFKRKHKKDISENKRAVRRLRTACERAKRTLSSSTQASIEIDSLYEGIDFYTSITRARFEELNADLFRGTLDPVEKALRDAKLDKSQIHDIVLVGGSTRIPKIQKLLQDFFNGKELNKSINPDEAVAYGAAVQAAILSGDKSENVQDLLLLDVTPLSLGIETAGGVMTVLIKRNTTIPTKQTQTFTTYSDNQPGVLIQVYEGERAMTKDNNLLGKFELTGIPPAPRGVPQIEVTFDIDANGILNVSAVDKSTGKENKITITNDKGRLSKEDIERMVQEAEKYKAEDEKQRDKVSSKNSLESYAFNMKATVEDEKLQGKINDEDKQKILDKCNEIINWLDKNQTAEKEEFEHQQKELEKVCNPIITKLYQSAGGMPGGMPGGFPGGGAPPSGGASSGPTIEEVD
UniProt Q8IZP0: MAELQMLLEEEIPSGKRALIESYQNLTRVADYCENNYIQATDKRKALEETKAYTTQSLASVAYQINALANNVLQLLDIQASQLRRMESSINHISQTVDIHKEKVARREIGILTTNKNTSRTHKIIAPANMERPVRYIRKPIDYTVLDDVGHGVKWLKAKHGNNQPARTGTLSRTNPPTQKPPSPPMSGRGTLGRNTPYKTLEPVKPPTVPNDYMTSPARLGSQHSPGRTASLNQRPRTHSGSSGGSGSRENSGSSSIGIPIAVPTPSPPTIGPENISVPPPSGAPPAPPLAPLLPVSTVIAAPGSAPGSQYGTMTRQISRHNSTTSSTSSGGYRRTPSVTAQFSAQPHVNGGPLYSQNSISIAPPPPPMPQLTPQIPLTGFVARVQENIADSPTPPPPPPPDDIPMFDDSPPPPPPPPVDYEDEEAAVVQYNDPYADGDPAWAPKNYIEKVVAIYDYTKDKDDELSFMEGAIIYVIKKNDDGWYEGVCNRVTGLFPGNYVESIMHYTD
UniProt P60842: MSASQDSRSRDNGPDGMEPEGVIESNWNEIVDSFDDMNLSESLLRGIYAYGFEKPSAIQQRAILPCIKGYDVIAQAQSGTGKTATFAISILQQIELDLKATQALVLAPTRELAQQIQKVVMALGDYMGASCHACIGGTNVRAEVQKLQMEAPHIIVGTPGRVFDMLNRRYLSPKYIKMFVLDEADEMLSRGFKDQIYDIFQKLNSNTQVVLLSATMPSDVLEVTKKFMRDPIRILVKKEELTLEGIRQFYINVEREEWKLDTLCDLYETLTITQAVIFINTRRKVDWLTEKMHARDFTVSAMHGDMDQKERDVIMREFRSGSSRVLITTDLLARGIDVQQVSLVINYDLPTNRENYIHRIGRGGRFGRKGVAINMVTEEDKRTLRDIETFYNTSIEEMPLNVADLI
UniProt P17980: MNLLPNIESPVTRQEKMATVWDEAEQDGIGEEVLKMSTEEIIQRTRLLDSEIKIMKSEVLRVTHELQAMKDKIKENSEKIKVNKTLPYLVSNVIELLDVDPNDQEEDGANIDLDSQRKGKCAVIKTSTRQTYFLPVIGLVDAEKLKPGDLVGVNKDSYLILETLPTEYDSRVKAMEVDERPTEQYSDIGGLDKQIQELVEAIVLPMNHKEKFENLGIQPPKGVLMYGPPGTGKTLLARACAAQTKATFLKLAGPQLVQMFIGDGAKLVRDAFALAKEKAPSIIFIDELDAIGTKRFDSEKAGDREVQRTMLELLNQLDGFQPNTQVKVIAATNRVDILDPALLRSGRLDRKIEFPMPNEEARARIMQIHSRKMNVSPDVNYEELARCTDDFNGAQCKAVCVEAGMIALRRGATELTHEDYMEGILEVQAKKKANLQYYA
UniProt Q8N6H7: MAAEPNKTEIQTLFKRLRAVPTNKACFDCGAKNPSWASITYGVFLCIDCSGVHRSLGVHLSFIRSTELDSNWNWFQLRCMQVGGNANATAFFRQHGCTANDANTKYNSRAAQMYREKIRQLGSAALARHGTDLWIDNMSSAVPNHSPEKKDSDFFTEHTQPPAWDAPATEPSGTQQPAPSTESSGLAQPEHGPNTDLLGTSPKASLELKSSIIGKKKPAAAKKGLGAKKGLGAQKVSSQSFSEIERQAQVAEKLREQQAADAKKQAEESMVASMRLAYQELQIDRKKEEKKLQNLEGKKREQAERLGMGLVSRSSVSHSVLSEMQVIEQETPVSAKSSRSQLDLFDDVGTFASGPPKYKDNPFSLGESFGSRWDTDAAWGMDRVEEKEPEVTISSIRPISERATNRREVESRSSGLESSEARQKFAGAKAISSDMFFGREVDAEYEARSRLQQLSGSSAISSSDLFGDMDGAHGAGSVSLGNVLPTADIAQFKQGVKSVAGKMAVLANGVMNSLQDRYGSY
UniProt Q9NR12: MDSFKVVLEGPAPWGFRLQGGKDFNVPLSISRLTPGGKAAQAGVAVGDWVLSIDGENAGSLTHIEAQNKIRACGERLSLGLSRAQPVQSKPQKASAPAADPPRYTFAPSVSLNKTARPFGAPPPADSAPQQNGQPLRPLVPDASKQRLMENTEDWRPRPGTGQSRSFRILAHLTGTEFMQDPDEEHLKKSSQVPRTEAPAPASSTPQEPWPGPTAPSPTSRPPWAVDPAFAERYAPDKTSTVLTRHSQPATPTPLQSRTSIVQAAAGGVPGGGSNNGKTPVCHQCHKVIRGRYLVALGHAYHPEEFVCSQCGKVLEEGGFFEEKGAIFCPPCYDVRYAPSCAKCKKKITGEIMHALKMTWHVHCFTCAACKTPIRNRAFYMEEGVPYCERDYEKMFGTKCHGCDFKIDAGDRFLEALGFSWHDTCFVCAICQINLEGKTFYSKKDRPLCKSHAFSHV
UniProt Q13561: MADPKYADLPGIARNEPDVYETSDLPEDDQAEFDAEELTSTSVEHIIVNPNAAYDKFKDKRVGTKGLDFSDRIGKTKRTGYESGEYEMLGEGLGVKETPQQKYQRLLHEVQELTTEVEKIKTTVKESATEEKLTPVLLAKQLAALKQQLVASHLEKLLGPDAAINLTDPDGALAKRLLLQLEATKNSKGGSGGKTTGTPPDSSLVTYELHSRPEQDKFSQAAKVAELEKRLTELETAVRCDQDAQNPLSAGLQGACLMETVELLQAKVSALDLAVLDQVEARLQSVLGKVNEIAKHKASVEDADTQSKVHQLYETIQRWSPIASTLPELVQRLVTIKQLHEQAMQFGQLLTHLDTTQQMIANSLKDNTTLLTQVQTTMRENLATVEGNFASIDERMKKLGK
UniProt P54821: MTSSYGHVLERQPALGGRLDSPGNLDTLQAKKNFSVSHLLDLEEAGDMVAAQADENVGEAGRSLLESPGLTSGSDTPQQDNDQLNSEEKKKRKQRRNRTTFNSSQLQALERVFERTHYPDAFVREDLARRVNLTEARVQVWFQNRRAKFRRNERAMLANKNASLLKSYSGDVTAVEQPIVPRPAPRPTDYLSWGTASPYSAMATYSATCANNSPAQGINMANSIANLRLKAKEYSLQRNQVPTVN
UniProt P14618: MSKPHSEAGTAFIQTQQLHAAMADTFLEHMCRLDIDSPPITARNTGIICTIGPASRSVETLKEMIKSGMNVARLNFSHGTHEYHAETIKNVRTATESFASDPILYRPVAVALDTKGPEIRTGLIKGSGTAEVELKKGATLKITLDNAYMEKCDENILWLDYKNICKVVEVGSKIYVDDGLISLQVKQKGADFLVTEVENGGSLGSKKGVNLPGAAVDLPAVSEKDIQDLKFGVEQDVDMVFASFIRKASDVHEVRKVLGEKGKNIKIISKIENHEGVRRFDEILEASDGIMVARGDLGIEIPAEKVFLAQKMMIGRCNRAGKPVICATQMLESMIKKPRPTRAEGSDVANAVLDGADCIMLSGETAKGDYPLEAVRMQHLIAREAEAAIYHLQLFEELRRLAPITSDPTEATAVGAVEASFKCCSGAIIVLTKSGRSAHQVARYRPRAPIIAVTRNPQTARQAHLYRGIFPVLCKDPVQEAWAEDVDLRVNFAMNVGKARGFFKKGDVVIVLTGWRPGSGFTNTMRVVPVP

T1: HSPB5-BioID2 (UniProt P23927)
T1 sequence: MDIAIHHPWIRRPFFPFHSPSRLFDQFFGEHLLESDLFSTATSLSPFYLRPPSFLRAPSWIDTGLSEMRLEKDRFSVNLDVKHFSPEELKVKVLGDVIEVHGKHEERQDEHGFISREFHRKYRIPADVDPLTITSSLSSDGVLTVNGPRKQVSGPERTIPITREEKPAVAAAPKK

B1: Translocon-associated protein subunit beta (protein, UniProt P43308 18-183)
chain: EEGARLLASKSLLNRYAVEGRDLTLQYNIYNVGSSAALDVELSDDSFPPEDFGIVSGMLNVKWDRIAPASNVSHTVVLRPLKAGYFNFTSATITYLAQEDGPVVIGSTSAPGQGGILAQREFDRRFSPHFLDWAAFGVMTLPSIGIPLLLWYSSKRKYDTPKTKKN
B2: 6-phosphogluconate dehydrogenase, (enzyme, UniProt P52209 1-483)
chain: MAQADIALIGLAVMGQNLILNMNDHGFVVCAFNRTVSKVDDFLANEAKGTKVVGAQSLKEMVSKLKKPRRIILLVKAGQAVDDFIEKLVPLLDTGDIIIDGGNSEYRDTTRRCRDLKAKGILFVGSGVSGGEEGARYGPSLMPGGNKEAWPHIKTIFQGIAAKVGTGEPCCDWVGDEGAGHFVKMVHNGIEYGDMQLICEAYHLMKDVLGMAQDEMAQAFEDWNKTELDSFLIEITANILKFQDTDGKHLLPKIRDSAGQKGTGKWTAISALEYGVPVTLIGEAVFARCLSSLKDERIQASKKLKGPQKFQFDGDKKSFLEDIRKALYASKIISYAQGFMLLRQAATEFGWTLNYGGIALMWRGGCIIRSVFLGKIKDAFDRNPELQNLLLDDFFKSAVENCQDSWRRAVSTGVQAGIPMPCFTTALSFYDGYRHEMLPASLIQAQRDYFGAHTYELLAKPGQFIHTNWTGHGGTVSSSSYNA

Biological target: T1, HSPB5-BioID2
Test: proximity labelling; HSPB5-BioID2 transiently overexpressed in 293T cells, biotin, with or without 5 µM MG132 for 24 h; proteins digested with trypsin (DiDBiT), biotinylated peptides purified on tamavidin 2-REV magnetic beads, nanoLC/MS/MS

binding, binds:
Sequestosome-1 (from UniProt Q13501 1-440)
Serine/threonine-protein kinase PLK2 (from UniProt Q9NYY3-1 1-685) (enzyme)
Heat shock cognate 71 kDa protein (from UniProt P11142 1-646)
Abl interactor 1 (from UniProt Q8IZP0 1-508)
Eukaryotic initiation factor 4A-I (from UniProt P60842 1-406)
26S proteasome regulatory subunit 6A (from UniProt P17980 1-439)
ADP-ribosylation factor GTPase-activating protein 2 (from UniProt Q8N6H7 1-521)
PDZ and LIM domain protein 7 (from UniProt Q9NR12 1-457)
Dynactin subunit 2 (from UniProt Q13561 1-401)
Paired mesoderm homeobox protein 1 (from UniProt P54821 1-245)
Pyruvate kinase PKM (from UniProt P14618 1-531) (enzyme)
B1
B2
